Results on 3 substances are retold here after paper PMC5940392.

Protein sequences, listed by entry. Tags and fused reporters are not part of them.
UniProt Q5VTD9: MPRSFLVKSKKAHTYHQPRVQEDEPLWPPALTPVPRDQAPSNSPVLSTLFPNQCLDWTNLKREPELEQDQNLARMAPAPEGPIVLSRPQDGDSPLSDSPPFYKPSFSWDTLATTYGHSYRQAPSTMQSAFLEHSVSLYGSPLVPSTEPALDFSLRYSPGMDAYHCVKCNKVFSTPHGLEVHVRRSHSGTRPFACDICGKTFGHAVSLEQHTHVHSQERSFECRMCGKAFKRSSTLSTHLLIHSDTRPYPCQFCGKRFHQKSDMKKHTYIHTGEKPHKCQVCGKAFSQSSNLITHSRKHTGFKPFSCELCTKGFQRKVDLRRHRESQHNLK
UniProt Q13547: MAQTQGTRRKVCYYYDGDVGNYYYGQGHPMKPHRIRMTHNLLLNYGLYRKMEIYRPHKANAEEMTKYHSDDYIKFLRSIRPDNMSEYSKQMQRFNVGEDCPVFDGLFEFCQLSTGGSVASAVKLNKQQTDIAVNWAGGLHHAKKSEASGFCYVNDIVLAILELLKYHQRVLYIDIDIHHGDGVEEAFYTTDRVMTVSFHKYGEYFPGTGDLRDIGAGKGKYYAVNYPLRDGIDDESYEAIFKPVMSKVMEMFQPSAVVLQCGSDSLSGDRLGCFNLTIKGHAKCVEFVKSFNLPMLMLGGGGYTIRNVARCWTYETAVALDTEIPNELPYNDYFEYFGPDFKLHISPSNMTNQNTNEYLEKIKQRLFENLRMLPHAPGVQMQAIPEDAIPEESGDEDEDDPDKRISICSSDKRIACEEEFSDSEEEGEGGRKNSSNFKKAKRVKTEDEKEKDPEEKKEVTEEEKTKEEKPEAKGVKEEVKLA
UniProt Q92769: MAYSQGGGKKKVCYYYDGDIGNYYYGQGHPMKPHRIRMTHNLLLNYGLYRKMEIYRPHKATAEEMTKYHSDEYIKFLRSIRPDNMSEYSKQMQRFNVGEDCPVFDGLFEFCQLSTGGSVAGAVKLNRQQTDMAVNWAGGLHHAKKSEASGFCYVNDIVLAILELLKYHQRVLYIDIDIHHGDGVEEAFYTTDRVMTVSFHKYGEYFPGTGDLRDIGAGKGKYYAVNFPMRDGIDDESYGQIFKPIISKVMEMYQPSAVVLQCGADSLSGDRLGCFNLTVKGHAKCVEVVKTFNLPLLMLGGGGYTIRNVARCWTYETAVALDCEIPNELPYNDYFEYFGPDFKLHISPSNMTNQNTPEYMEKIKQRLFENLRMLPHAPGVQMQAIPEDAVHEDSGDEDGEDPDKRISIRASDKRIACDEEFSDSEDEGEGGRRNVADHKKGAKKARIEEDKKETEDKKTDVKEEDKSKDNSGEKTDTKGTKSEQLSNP

Results are given in words; binding and its absence hold for the method and conditions named. Binding seen in cells or lysates may run through a third protein. Some binding calls cover weakened binding; strength is not graded here.

Assay [1] addresses GFI1B (human (endogenous in HEL)) (UniProt Q5VTD9). Kind of assay: co-IP; endogenous proteins of HEL whole-cell lysate (lysis in N450 buffer, diluted with 2 volumes of N0 buffer; 4 C; washes with N150 buffer: 150 mM NaCl, 1% NP-40); IP with anti-LSD1, anti-GFI1B or anti-RUNX1 antibody, normal IgG as control, western blot; untreated cells, also cells treated with DMSO or 2 uM NCD38 for 24 h (LSD1-IP: no impairment; RUNX1-IP: less impaired). (A western blot detects proteins with antibodies after separation by electrophoresis.)

Assay [2] deals with RUNX1 (human (endogenous in HEL)) (UniProt Q01196). The description is as above.
The target of assay [3] is GFI1B (human (endogenous in HEL)) (UniProt Q5VTD9). The assay can be described thus: co-IP; HEL cells treated with 2 uM NCD38 for 24 hours; IP with anti-GFI1B antibody, western blot; compared with DMSO.

“RE1 silencing transcription factor corepressor (from UniProt Q9UKL0 1-485)”: the binding result was “binds” in assay [1], “binds” in assay [2] and “binds weakly” in assay [3].

Turning to “histone deacetylase 1 (from UniProt Q13547 1-482) (enzyme)”, the binding result in assay [1] is reported as “binds”; in assay [2], “binds”; in assay [3], “binds weakly”.

Turning to “histone deacetylase 2 (from UniProt Q92769 1-488) (enzyme)”, the results for the binding result in assay [1], in assay [2] and in assay [3] were “binds”, “binds” and “binds weakly”, respectively.
